Test results reported in patent US20070208011A1, “Supersaturated Benzodiazepine Solutions and Their Delivery” (priority 2005, published 2007).

Columns and labels:
[1] = clinical; details: human, plasma, inhaled or intranasal, 5 mg
[2] = Nasal administration of diazepam and midazolam preparations in two healthy volunteers; details: human, blood, other: intranasal, 5 mg
Description: Approximately 0.5 ml (2.5 mg) was dripped into each nostril over a period of 30 seconds.

Cc1ncc2n1-c1ccc(Cl)cc1C(c1ccccc1F)=NC2 [MDZ, midazolam]
half-life [1]: 2.2 h
half-life [2]: 1.54 h
